These are yes or no findings as the source states them, for the method shown. A result given as binding can be weak or reduced; the word gives no strength. Tags and fused reporters may be left off the sequences shown.
Biological target: C-terminal region of LD, yeast two-hybrid fusion (Arabidopsis thaliana)
Experiment: two-hybrid; GAL4 AD (pGADT7, AH109) and BD (pGBKT7, Y187) fusions, mated; growth on SD-Leu/Trp/His, 3-amino-1,2,4-triazole to reduce background

binding: binds
B1: APRF1, full-length, yeast two-hybrid fusion (protein, UniProt Q9LYK6 1-330)
chain: MSLTELDDGLVRRMAMGAVFSDFGGKIHSVGFHRTDDLLVTSSEDDSLRLFDIANAKQLKITYHKKHGTDRVCFTHHPSSLICSSRYNLESTGESLRYLSMYDNRILRYFKGHKDRVVSLCMSPINDSFMSGSLDRSVRLWDLRVNACQGILHLRGRPAVAYDQQGLVFAIAMEGGAVKLFDSRCYDKGPFDTFLVGGDTAEVNDIKFSNDGKSMLLTTTNNNIYVLDAYRGEKKCGFSLEPSQGTPIEATFTPDGKYVLSGSGDGTLHAWNIENPSEVARWENNIGVVSCLKWAPRRAMFVAASTVLTFWIPNDGESPAPADPPTDQQQ

Source: PMC9303297, “Characterization of an autonomous pathway complex that promotes flowering in Arabidopsis” (Nucleic Acids Research, 2022)
